Measured values from the supplement of paper PMC10849652.
The other results are listed elsewhere or left out.

Sequences of proteins named here, by UniProt entry; tags and fusion partners are left off. A change or cut given only in a name is not applied to a line headed by its entry.
UniProt Q66PJ3: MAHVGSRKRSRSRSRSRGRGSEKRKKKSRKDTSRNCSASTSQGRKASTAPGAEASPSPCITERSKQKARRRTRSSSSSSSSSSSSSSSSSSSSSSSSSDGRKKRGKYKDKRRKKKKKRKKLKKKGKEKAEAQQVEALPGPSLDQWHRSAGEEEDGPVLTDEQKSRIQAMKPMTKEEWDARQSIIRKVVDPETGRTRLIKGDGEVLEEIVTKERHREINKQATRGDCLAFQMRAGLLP
UniProt Q8TER5, whole entry, looked up: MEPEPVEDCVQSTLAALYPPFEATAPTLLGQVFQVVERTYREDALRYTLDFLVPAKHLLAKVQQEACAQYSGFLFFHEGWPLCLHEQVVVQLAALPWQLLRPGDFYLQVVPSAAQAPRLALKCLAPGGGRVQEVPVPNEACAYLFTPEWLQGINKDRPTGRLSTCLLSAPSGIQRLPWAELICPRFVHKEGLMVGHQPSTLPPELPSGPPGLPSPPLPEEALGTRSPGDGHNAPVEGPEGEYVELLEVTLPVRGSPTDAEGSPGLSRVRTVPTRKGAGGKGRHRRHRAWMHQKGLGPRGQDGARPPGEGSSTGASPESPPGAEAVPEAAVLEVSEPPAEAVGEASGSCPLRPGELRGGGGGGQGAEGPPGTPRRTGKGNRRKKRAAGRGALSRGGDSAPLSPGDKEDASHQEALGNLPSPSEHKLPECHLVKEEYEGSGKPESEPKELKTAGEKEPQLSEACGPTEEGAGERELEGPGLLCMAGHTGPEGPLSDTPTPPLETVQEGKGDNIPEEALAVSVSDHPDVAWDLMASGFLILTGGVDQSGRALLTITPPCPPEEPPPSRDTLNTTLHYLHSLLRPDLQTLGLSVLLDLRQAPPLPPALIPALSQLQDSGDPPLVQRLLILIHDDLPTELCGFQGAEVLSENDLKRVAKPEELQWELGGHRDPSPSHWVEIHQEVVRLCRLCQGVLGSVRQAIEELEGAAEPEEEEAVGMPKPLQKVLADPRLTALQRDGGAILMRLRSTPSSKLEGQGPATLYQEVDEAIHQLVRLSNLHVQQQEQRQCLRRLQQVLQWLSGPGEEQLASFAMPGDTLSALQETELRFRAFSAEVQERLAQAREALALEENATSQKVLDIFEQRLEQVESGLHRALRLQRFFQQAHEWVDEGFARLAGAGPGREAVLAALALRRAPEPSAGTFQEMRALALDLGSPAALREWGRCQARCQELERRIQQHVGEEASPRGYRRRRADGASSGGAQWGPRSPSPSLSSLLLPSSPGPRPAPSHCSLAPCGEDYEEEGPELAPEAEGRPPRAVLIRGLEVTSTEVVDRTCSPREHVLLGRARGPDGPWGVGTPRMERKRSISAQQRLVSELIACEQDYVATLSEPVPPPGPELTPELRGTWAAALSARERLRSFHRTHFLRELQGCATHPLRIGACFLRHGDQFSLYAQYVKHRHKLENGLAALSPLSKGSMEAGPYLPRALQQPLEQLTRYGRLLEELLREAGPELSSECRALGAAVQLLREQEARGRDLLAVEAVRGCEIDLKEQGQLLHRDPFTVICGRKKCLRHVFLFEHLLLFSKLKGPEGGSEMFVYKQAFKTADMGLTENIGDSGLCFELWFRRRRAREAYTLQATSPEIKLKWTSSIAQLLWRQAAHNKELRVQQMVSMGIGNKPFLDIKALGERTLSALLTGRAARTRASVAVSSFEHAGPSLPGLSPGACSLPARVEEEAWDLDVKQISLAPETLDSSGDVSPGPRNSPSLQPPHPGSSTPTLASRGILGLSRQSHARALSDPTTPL
UniProt P40617: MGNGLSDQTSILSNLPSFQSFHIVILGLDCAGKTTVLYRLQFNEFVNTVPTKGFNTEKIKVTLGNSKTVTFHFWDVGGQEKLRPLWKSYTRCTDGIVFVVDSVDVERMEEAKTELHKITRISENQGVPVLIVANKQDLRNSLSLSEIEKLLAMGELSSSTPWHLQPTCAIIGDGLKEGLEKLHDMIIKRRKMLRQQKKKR
UniProt P35414: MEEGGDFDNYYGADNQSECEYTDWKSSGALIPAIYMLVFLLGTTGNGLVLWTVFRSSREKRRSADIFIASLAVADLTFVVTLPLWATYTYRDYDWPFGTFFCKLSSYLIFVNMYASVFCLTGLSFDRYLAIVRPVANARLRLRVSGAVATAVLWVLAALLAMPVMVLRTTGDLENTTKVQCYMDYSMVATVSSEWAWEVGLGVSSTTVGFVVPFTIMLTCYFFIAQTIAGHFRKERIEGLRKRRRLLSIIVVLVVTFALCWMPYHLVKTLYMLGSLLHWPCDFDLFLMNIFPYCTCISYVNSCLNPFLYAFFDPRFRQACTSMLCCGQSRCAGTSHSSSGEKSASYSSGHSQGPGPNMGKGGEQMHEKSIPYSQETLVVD
UniProt Q9H2J1: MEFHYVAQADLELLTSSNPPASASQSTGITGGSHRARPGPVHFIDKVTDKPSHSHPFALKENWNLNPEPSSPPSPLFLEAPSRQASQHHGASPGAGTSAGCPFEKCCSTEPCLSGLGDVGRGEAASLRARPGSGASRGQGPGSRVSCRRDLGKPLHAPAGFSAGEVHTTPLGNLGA
UniProt Q14CB8: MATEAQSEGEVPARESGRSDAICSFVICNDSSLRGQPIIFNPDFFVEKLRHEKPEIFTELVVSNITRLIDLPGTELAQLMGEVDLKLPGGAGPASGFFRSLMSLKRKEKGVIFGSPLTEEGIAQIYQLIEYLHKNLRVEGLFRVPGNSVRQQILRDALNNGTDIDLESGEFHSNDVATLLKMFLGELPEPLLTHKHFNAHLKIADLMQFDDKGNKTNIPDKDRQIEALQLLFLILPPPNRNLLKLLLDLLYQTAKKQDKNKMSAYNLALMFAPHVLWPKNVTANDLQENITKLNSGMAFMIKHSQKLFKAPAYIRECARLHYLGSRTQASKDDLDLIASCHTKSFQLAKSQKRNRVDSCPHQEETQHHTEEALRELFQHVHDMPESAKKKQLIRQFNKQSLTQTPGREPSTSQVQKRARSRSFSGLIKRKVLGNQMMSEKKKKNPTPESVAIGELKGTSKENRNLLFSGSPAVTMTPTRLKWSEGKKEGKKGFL
UniProt Q9NUS5: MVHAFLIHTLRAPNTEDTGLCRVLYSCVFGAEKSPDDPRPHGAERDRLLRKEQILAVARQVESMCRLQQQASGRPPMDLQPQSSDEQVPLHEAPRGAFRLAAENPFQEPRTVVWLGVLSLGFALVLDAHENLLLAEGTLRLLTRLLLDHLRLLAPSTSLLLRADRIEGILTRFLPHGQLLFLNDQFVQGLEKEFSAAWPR
UniProt P49407: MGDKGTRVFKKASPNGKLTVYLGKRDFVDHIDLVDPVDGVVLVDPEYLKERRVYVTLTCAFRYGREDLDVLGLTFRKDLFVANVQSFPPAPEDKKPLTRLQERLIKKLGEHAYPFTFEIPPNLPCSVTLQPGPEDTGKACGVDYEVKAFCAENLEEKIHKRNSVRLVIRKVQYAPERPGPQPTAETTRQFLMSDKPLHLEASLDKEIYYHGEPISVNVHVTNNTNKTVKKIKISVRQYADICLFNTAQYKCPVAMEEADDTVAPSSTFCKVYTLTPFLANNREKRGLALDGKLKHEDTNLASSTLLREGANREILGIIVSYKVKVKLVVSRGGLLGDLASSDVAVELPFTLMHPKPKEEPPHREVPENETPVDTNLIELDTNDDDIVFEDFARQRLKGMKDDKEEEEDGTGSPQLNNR
UniProt Q13508: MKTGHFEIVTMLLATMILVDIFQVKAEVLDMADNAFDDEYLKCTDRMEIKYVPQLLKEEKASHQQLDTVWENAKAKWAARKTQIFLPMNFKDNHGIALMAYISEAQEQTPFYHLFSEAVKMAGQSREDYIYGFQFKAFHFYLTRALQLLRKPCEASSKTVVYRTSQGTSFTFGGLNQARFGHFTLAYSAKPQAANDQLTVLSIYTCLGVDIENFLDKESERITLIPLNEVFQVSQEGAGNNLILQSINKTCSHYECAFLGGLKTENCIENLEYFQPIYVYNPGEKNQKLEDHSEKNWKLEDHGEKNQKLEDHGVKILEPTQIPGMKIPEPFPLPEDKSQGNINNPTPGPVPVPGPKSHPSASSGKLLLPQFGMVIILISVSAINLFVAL
UniProt Q8N2F6: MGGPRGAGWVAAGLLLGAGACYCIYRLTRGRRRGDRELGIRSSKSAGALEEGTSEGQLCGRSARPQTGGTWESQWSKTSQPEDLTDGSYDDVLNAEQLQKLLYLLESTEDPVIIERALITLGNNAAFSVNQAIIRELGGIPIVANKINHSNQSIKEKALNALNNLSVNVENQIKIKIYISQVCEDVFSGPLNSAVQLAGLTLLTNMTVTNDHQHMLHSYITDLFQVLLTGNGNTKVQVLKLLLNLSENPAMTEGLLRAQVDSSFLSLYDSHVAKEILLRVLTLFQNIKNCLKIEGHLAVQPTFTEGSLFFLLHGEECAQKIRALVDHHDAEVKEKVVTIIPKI
UniProt Q9P2N2: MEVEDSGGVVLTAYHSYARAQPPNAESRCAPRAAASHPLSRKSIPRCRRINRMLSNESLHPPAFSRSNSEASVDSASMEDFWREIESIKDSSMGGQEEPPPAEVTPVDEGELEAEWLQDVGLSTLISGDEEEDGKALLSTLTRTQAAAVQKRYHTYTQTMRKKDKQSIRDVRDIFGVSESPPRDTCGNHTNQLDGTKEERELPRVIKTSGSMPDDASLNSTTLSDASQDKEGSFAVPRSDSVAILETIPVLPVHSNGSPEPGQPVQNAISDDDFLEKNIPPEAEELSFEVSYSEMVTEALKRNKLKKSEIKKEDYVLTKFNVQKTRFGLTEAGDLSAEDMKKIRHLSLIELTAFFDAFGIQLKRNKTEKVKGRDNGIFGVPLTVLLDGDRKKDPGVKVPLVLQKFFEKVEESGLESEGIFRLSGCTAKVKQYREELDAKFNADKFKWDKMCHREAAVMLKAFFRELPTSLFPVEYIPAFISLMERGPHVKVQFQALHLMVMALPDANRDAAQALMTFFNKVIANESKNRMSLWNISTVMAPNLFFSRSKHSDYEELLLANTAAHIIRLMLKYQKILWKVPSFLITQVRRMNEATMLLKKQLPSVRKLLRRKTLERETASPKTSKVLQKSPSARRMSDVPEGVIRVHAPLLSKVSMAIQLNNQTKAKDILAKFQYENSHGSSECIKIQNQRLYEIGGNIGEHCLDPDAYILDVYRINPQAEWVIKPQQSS
UniProt Q5VV41: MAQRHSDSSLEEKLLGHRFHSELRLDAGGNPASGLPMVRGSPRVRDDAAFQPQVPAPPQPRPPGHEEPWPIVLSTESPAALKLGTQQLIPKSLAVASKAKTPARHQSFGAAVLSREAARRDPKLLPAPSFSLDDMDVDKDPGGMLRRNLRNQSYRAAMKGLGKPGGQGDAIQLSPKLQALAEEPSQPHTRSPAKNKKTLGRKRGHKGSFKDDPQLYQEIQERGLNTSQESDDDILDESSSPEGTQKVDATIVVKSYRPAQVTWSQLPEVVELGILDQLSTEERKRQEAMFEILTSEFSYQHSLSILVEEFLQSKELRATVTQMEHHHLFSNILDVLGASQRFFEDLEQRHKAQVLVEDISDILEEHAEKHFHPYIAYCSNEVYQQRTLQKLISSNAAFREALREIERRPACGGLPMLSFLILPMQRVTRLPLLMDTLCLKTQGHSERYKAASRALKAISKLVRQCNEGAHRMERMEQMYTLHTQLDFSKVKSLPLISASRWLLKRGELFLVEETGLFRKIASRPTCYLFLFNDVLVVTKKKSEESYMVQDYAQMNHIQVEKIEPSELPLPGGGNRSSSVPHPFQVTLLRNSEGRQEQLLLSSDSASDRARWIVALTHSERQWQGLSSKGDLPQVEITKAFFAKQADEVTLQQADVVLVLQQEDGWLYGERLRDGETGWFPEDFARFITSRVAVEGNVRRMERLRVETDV
UniProt Q9H0F7: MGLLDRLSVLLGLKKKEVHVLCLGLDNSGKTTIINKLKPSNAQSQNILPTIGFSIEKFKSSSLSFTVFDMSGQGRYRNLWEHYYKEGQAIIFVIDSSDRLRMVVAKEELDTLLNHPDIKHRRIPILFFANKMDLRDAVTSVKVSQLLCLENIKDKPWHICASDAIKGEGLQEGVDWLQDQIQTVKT
UniProt O96018: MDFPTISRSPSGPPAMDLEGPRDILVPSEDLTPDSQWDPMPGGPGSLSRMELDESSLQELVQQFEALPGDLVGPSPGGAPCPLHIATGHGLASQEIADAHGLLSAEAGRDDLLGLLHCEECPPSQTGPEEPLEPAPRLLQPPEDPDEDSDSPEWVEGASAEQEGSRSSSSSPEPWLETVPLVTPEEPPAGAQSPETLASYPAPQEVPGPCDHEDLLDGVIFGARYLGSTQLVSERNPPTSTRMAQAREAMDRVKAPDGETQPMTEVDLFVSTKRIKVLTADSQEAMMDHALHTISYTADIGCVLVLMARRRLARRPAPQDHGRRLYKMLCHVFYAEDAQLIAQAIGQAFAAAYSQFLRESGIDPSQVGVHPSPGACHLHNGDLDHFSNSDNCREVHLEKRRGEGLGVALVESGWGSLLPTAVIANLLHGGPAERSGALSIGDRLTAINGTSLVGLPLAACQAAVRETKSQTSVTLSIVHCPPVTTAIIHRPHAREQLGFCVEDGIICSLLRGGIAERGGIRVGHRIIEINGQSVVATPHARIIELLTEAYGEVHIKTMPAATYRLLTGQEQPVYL

Tests used:
Assay in all cases: log2 fold change, soluble protein after heating vs DMSO (PISA); higher = thermal stabilisation; K562 lysate, 10 uM; active = over 0.2 and 3.5 SD of the protein, either way, in both replicates (recomputed)
[1] = compound: CN1CC[C@H](c2c(O)cc(O)c3c(=O)cc(-c4ccccc4Cl)oc23)[C@H](O)C1 [alvocidib]
Outline: (§1)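 Following dounce homogenisation of K562 pellets in PBS pH 7.4 with 1 mM MgCl2, crude extract at 1 mg/mL protein was incubated for 30 min with 10 μM compound. Aliquots were then heated for 3 min over 48°C-58°C and pooled, NP-40 was added to 0.5% at 4°C, and soluble protein was recovered as the supernatant at 21,000xg for 90 min. Channel-sum-equalised TMTpro 16plex LC-MS/MS quantified this protein. Each value, from duplicates, is a log-two fold change in thermal stability relative to solvent controls.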

[2] = compound: CNC(=O)c1ccc(Nc2ncc(C(F)(F)F)c(NCc3nccnc3N(C)S(C)(=O)=O)n2)cc1 [defactinib]
Outline: as §1

[3] = compound: COc1cc2nc(-c3cc(F)ccc3O)nc(N[C@@H]3CNC[C@H]3C(C)(C)O)c2cc1OC
Outline: as §1

[4] = compound: CS(=O)(=O)CCNCc1ccc(-c2ccc3ncnc(Nc4ccc(OCc5cccc(F)c5)c(Cl)c4)c3c2)o1 [lapatinib]
Outline: as §1

[5] = compound: C[C@H](C1=CC=C(C=C1)C(=O)NC2=C3C=CNC3=NC=C2)N
Outline: as §1

[6] = compound: Cc1cc(Nc2cc(CN3CCOCC3)c3nc(C)c(Cc4ccc(Cl)cc4F)n3n2)n[nH]1 [gandotinib]
Outline: as §1

[7] = compound: Cc1cccc(CC(=O)N2CCc3c2ccc(-c2cn(C)c4ncnc(N)c24)c3F)n1
Outline: as §1

[8] = compound: CS(=O)(=O)N1CCN(Cc2cc3nc(-c4cccc5[nH]ncc45)nc(N4CCOCC4)c3s2)CC1 [pictilisib]
Outline: as §1

[9] = compound: Cc1ccc(NC(=O)c2ccc(CN3CC[C@H](N(C)C)C3)c(C(F)(F)F)c2)cc1Nc1nccc(-c2cncnc2)n1 [bafetinib]
Outline: as §1

[10] = compound: CN1CCc2c(c3ccccc3n2Cc2ccc(C(=O)NO)cc2)C1 [Tubastatin A]
Outline: as §1

[11] = compound: CNC(=O)C1=CC=CC=C1NC2=NC(=NC=C2Cl)NC3=C(C=C(C=C3)N4CCOCC4)OC
Outline: as §1

[12] = compound: CNc1nc(-c2ccc3c(N)n[nH]c3c2)cc(N2C[C@@H](C(=O)NC3CCCCC3)CC[C@H]2C)n1
Outline: as §1

[13] = compound: COc1cc(Nc2ncc3c(n2)-c2ccc(Cl)cc2C(c2c(F)cccc2OC)=NC3)ccc1C(=O)O [alisertib]
Outline: as §1

[14] = compound: COc1cc2ncnc(Nc3ccc(F)c(Cl)c3)c2cc1OCCCN1CCOCC1 [gefitinib]
Outline: as §1

[15] = compound: C[C@H](Nc1ncnc2nc[nH]c12)c1cc2cccc(Cl)c2c(=O)n1-c1ccccc1 [duvelisib]
Outline: as §1

[16] = compound: COC(=O)N[C@@H](C)CNc1nccc(-c2cn(C(C)C)nc2-c2cc(Cl)cc(NS(C)(=O)=O)c2F)n1 [encorafenib]
Outline: as §1

[17] = compound: COC(=O)[C@H](CCSC)NC(=O)C1=C(C=C(C=C1)NC[C@H](CS)N)C2=CC=CC=C2
Outline: as §1

[18] = compound: Cc1cc(Nc2cc(N3CCN(C)CC3)nc(Sc3ccc(NC(=O)C4CC4)cc3)n2)n[nH]1 [tozasertib]
Outline: as §1

[19] = compound: C[C@@H](Oc1cc(-c2cnn(C3CCNCC3)c2)cnc1N)c1c(Cl)ccc(F)c1Cl [crizotinib]
Outline: as §1

[20] = compound: Cc1ccc(-n2nc(C(C)(C)C)cc2NC(=O)Nc2ccc(OCCN3CCOCC3)c3ccccc23)cc1 [doramapimod]
Outline: as §1

Measured: log2 fold change

ARL6IP4 isoform 4 (UniProt Q66PJ3)
inactive: [1] -0.191 | [2] -0.091 | [3] -0.125 | [4] 0.141 | [5] -0.135 | [6] -0.068 | [7] -0.396

ARL6IP4 isoform 7 (UniProt Q66PJ3)
inactive: [8] 0.109 | [9] -0.122

ARHGEF40 (UniProt Q8TER5)
inactive: [10] -0.524 | [11] -0.008 | [12] 0.065 | [13] -0.018 | [3] -0.027 | [14] 0.005 | [4] -0.005 | [15] -0.162

ARL4A (UniProt P40617)
inactive: [16] 0.054 | [17] 0.065 | [13] -0.073 | [14] 0.058 | [18] 0.029

ARL6IP4 isoform 2 (UniProt Q66PJ3)
inactive: [1] 0.025 | [3] 0.105 | [4] 0.087 | [5] -0.01 | [6] -0.106 | [7] 0.05

ARHGAP15 (UniProt Q53QZ3)
inactive: [16] -0.052 | [17] 0.084 | [3] 0.057 | [4] 0.043 | [19] -0.166 | [18] 0.048 | [20] -0.082

ARMC8 (UniProt C9JAA7)
inactive: [16] 0.211 | [17] 0.017 | [18] -0.068

APOL1 isoform 2 (UniProt O14791)
inactive: [1] -0.048 | [12] 0.132 | [16] -0.047 | [17] 0.161 | [5] -0.284 | [15] 0.157 | [6] -0.093 | [18] -0.276 | [7] 0.254

Two neighbouring records out of the list so far, quoted:
ARL6IP4 isoform 7 (UniProt Q66PJ3)
inactive: [8] 0.109 | [9] -0.122

ARHGEF40 (UniProt Q8TER5)
inactive: [10] -0.524 | [11] -0.008 | [12] 0.065 | [13] -0.018 | [3] -0.027 | [14] 0.005 | [4] -0.005 | [15] -0.162

Next results

AQP1 (UniProt P29972)
inactive: [1] -0.072 | [5] -0.04 | [6] 0.064 | [7] 0.117

APLNR (UniProt P35414)
inactive: [1] 0.006 | [5] 0.07 | [6] 0 | [7] 0.066

ARMC7 (UniProt Q9H6L4)
inactive: [2] -0.285 | [12] 0.027 | [19] 0.056 | [15] 0.013 | [20] -0.077

ARHGAP27 (UniProt Q6ZUM4)
inactive: [2] -0.016 | [8] 0.045 | [9] 0.051

ARRDC1-AS1 (UniProt Q9H2J1)
inactive: [1] 0.081 | [13] -0.342 | [14] -0.061 | [5] -0.007 | [6] 0.005 | [7] -0.108

ARHGAP19 isoform 2 (UniProt Q14CB8)
inactive: [10] -0.109 | [11] 0.089 | [2] 0.117 | [12] 0.22 | [16] -0.03 | [17] 0.054 | [13] -0.004 | [14] 0.008 | [8] -0.21 | [19] -0.033 | [15] -0.085 | [18] 0.11 | [20] 0 | [9] -0.405

ARRDC3 (UniProt Q96B67)
inactive: [11] 0.013

ARHGAP39 isoform 2 (UniProt Q9C0H5)
inactive: [3] 0.063 | [4] -0.146 | [19] 0.136 | [20] -0.188

AP5S1 (UniProt Q9NUS5)
inactive: [10] 0.177 | [11] -0.321 | [12] 0.119 | [16] 0.058 | [17] -0.157 | [3] -0.702 | [4] 0.133 | [19] -0.006 | [15] -0.024 | [18] -0.131 | [20] -0.111

ARRB1 isoform 2 (UniProt P49407)
inactive: [10] 0.017 | [11] -0.003 | [2] -0.158 | [12] 0.03 | [16] -0.04 | [17] 0.144 | [13] 0.007 | [3] 0.002 | [14] 0.017 | [4] -0.012 | [8] -0.043 | [19] 0.051 | [15] -0.025 | [18] -0.083 | [20] -0.115 | [9] -0.024

ARHGAP22 isoform 2 (UniProt Q7Z5H3)
inactive: [10] 0 | [11] -0.007 | [12] 0.11 | [16] -0.059 | [17] -0.045 | [3] 0.097 | [4] 0.024 | [19] -0.064 | [15] 0.045 | [18] -0.065 | [20] -0.042

ASAP2 (UniProt O43150)
inactive: [3] 0.172 | [4] 0.071

APOH (UniProt P02749)
inactive: [3] 0.042 | [4] 0.169 | [8] 0.265 | [19] 0.205 | [20] -0.124 | [9] 0.056

ART3 (UniProt Q13508)
inactive: [10] -0.001

ARHGEF12 isoform 2 (UniProt Q9NZN5)
inactive: [16] 0.036 | [17] -0.106 | [19] -0.046 | [18] 0.008 | [20] -0.063

ARMC10 isoform 2 (UniProt Q8N2F6)
inactive: [10] 0.155 | [12] 0.107 | [16] -0.267 | [17] -0.046 | [15] -0.155 | [18] -0.083

ARHGEF2 (UniProt V9GYF0)
inactive: [10] -0.07 | [2] -0.211 | [12] 0.082 | [16] -0.035 | [17] 0.014 | [13] -0.083 | [3] 0.112 | [14] 0.229 | [4] -0.134 | [15] 0.11 | [18] 0.041

ARHGAP28 (UniProt Q9P2N2)
inactive: [11] 0.054 | [12] 0.122 | [3] 0.044 | [4] 0.015 | [8] -0.009 | [15] 0.029 | [9] -0.003

ARMC5 (UniProt Q96C12)
inactive: [1] 0.015 | [5] -0.064 | [6] -0.173 | [7] 0.059

APLF (UniProt Q8IW19)
inactive: [11] 0.048 | [2] 0.106 | [16] 0.024 | [17] -0.114 | [3] 0.009 | [4] -0.098 | [8] -0.067 | [19] -0.009 | [18] 0.054 | [20] 0.042 | [9] -0.161

APOD (UniProt P05090)
inactive: [1] -0.034 | [12] -0.293 | [16] 0.211 | [17] 0.164 | [3] -0.189 | [4] 0.449 | [19] 0.544 | [5] 0.277 | [15] -0.168 | [6] -0.117 | [18] 0.276 | [20] -0.403 | [7] -0.605

APOC3 (UniProt P02656)
inactive: [2] -0.07 | [12] 0.222 | [16] -0.064 | [17] 0.045 | [19] -0.129 | [15] 0.051 | [18] 0.016 | [20] -0.014

ARHGEF16 (UniProt Q5VV41)
inactive: [11] 0.04 | [16] 0.006 | [17] 0.184 | [18] 0.004

ARL6 isoform 2 (UniProt Q9H0F7)
inactive: [11] -0.195 | [19] 0.011 | [20] 0.058

APBA3 (UniProt O96018)
inactive: [10] -0.223 | [11] -0.056 | [2] 0.085 | [16] 0.105 | [17] 0.177 | [3] 0.07 | [4] -0.021 | [19] -0.321 | [18] 0.051 | [20] 0.017

APTX isoform 4 (UniProt Q7Z2E3)
inactive: [1] 0.054 | [13] -0.124 | [14] 0.047 | [5] -0.044 | [6] 0.034 | [7] -0.037
